The list shows a part of the results. The main result of the screen is listed elsewhere. These columns were measured beside it and carry no call. Most of these compounds were active or inconclusive in the main read-out, so they are no random draw. Potencies come from curve fits of mixed quality, noted in brackets.
Test: qHTS Assay to Find Inhibitors of Chronic Active B-Cell Receptor Signaling
Settings: ABC-DLBCL IkBa-CBG/CBR reporter, luminescence ratio (green luciferase fused to IkBa over red control in TMD8 lymphoma cells), 4 h
Procedure, shortened: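 Concentration-response series (up to 46 uM) were applied to TMD8 dual-reporter cells for 4 h at 37C with doxycycline. Green/red ratio, after filter-overlap correction, defined %Activity; red signal alone was normalised to basal cells and zero luminescence.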

[1] = measured here: CBR red luminescence, cell number
[2] = measured here: IkBa-CBG green luminescence

Which AC50 [1] does the source give for `CSCCC(NC(=O)c1cccc(S(=O)(=O)N2CCOCC2)c1)C(=O)Nc1ccc(F)cc1` (configuration not stated) here?
The AC50 was 0.366 µM [falling, full curve, poor fit].

For `Cc1cccc(Nc2c([N+](=O)[O-])cc(C(=O)N3CC(=O)Nc4ccccc43)cc2[N+](=O)[O-])c1`, which AC50 [1] is on record?
The AC50 was 22.4 µM [falling, partial curve, poor fit].

Which AC50 [1] does the source give for `Cc1ccc2nc(Nc3ccccc3)c(/C=N/O)c(=O)n2c1` here?
Its AC50 is 13 µM [rising, partial curve, poor fit].

With `CC1=C(C(=O)OC(C)C)C(c2ccc(F)cc2)NC(=O)N1` (configuration not stated) as the compound, how does the AC50 [1] read?
Its AC50 is 20.6 µM [falling, single point].

And the AC50 [2]?
The AC50 was 18.4 µM [rising, partial curve, poor fit].

For `Cc1c(C)[n+](=O)c2c(n1[O-])C(Br)CCC2Br` (configuration not stated), which AC50 [1] is on record?
The AC50 was 31.6 µM [rising, single point].

Which AC50 [1] does the source give for `COc1ccccc1C(=O)COC(=O)Cc1c[nH]c2ccccc12` here?
The AC50 was 23.1 µM [falling, partial curve, poor fit].

For `O=C(C[n+]1cc(-c2ccc(Cl)cc2)n2c1CCC2)Nc1nc(-c2ccccc2)cs1`, which AC50 [1] is on record?
The AC50 was 15.8 µM [falling, partial curve, poor fit].

Which AC50 [1] does the source give for `Cc1c(C(=O)NC2CC2)oc2ccccc12` here?
Its AC50 is 29.1 µM [rising, single point].

For `O=C(NCC(=O)N(Cc1cccs1)C(C(=O)NC1CCCCC1)c1cccnc1)c1ccco1` (configuration not stated), which AC50 [1] is on record?
The AC50 was 0.82 µM [rising, full curve, poor fit].

With `Cc1nnc(NC(=O)C(C)Sc2nnc(-c3ccco3)n2C(C)C)s1` (configuration not stated) as the compound, how does the AC50 [1] read?
Its AC50 is 10 µM [falling, partial curve].

For `CC(=NCCc1c(C)[nH]c2ccc(OC(F)(F)F)cc12)C1=C(O)CC(c2ccccc2)CC1=O` (configuration not stated), which AC50 [1] is on record?
The AC50 was 2.82 µM [rising, full curve, poor fit].

For `Cc1ccc2c(c1)Oc1ccc([N+](=O)[O-])cc1C(=O)N2`, which AC50 [1] is on record?
Its AC50 is 35.5 µM [falling, partial curve, poor fit].

With `COc1ccc(N(C)S(=O)(=O)c2cccc(C(=O)Nc3cc(OC)ccc3OC)c2)cc1` as the compound, how does the AC50 [1] read?
Its AC50 is 2.82 µM [rising, partial curve, poor fit].

For `Cc1ccc(-n2nc(C)c(/C=N/NC(=O)c3cccs3)c2Cl)cc1`, which AC50 [1] is on record?
Its AC50 is 16.4 µM [rising, single point].

With `Cn1cc([N+](=O)[O-])c(C(=O)Nc2sc3c(c2C#N)CCC3)n1` as the compound, how does the AC50 [1] read?
Its AC50 is 3.98 µM [falling, full curve].

Which AC50 [1] does the source give for `CC(=O)N1CCOc2ccc(S(=O)(=O)N(C)c3ccc(C)cc3)cc21` here?
Its AC50 is 2.82 µM [falling, full curve, poor fit].

Which AC50 [1] does the source give for `Cc1ccc(CN2C(=O)CSC2c2ccc(F)cc2)cc1` (configuration not stated) here?
Its AC50 is 14.1 µM [rising, single point].

For `COC(=O)C(C)n1cnc2c(nnn2-c2cccc(Cl)c2)c1=O` (configuration not stated), which AC50 [1] is on record?
Its AC50 is 7.31 µM [rising, partial curve].

With `CC(C)NC(=O)c1cc(-c2ccco2)on1` as the compound, how does the AC50 [1] read?
The AC50 was 35.5 µM [falling, single point].

With `COc1ccc(NCc2nnc(SCC#N)n2-c2ccccc2OC)cc1` as the compound, how does the AC50 [1] read?
Its AC50 is 2 µM [falling, full curve, poor fit].

With `O=C(CCn1cccc1)Nc1ccc(OC(F)(F)F)cc1` as the compound, how does the AC50 [1] read?
The AC50 was 0.794 µM [rising, full curve, poor fit].

Which AC50 [1] does the source give for `CCOC(=O)C1CCN(c2nc3cc(OC)ccc3cc2C#N)CC1` here?
The AC50 was 3.66 µM [falling, single point].

Which AC50 [1] does the source give for `COc1ccccc1OCC(=O)Nc1ccc(N2CCCCC2)cc1` here?
The AC50 was 14.1 µM [rising, partial curve, poor fit].

With `OCCc1ccc(-c2ccc(Cl)cc2)o1` as the compound, how does the AC50 [1] read?
The AC50 was 9.2 µM [rising, partial curve].

For `CCc1ccc2oc(-c3cccc(N)c3)nc2c1`, which AC50 [1] is on record?
The AC50 was 12.6 µM [falling, partial curve].

For `Cc1cccc(C(=O)Nc2ncc(CN3CCOCC3)s2)c1`, which AC50 [1] is on record?
The AC50 was 14.6 µM [falling, partial curve, poor fit].

With `OC[C@H]1O[C@@H](n2cnc3c(NC4CCCC4)nc(Cl)nc32)[C@H](O)[C@@H]1O` as the compound, how does the AC50 [1] read?
Its AC50 is 2.91 µM [rising, full curve].

What about the AC50 [2] of the same compound?
Its AC50 is 2.06 µM [falling, full curve].

With `CCOc1ccc(NC(=O)CSc2nc(N)c(-c3ccccc3)c(=O)[nH]2)cc1` as the compound, how does the AC50 [1] read?
Its AC50 is 8.91 µM [rising, partial curve, poor fit].

With `Cc1ccc(S(=O)(=O)Oc2ccc(/C=C(/NC(=O)c3ccccc3)C(=O)NCCCC(=O)O)cc2)cc1` as the compound, how does the AC50 [1] read?
Its AC50 is 0.708 µM [rising, full curve, poor fit].

Which AC50 [1] does the source give for `COCCNc1ccc(-c2n[nH]c(=O)c3ccccc23)cc1[N+](=O)[O-]` here?
The AC50 was 25.1 µM [rising, single point].

For `COc1ccc(-n2c(O)c(/C=N/NS(=O)(=O)c3cc(C)ccc3C)c3ccccc3c2=O)cc1OC`, which AC50 [1] is on record?
The AC50 was 4.61 µM [falling, single point].

Which AC50 [1] does the source give for `O=C(Nc1ccc(S(=O)(=O)N2CCCC2)cc1)c1ccc([N+](=O)[O-])o1` here?
Its AC50 is 8.2 µM [falling, single point].

With `Cc1cc(C)cc(-n2ncc3c2CCCC3NC(=O)c2cc(C)[nH]n2)c1` (configuration not stated) as the compound, how does the AC50 [1] read?
Its AC50 is 22.4 µM [falling, single point].

Which AC50 [1] does the source give for `O=[N+]([O-])c1cccc(-c2nc(Oc3ccc(Cl)cc3)c3ccccc3n2)c1` here?
The AC50 was 9.2 µM [falling, partial curve].

Which AC50 [1] does the source give for `Cn1ccnc1SCC(=O)Nc1ccccc1` here?
Its AC50 is 3.66 µM [rising, partial curve, poor fit].

For `O=C(NCCc1ccccn1)c1nc(Cn2cc(Br)cn2)no1`, which AC50 [1] is on record?
Its AC50 is 12.6 µM [rising, partial curve, poor fit].

For `Cc1nn(-c2ccccc2)c(Cl)c1/C=C/C(=O)c1ccccc1`, which AC50 [1] is on record?
The AC50 was 11.6 µM [falling, single point].

For `Cc1c(C)[n+](=O)c(-c2ccc(F)cc2)c(C)n1[O-]`, which AC50 [1] is on record?
The AC50 was 15.8 µM [rising, partial curve].

Which AC50 [2] does the source give for `C=CCn1c(CCCOc2ccc(Cl)cc2Cl)n[nH]c1=S` here?
The AC50 was 20.6 µM [falling, single point].

For `COc1ccc(CCC(C)NCc2cccc(Br)c2)cc1` (configuration not stated), which AC50 [1] is on record?
Its AC50 is 8.91 µM [rising, partial curve].

With `CCOc1ccccc1NC(=O)N1CCc2ccccc2C1` as the compound, how does the AC50 [1] read?
Its AC50 is 2.51 µM [falling, partial curve, poor fit].

For `CCOc1ccc(NC(=O)c2ccccc2O)cc1`, which AC50 [1] is on record?
Its AC50 is 8.2 µM [falling, partial curve].

Which AC50 [1] does the source give for `O=C(COC(=O)C1CCC(=O)N1)Nc1ccccc1Br` (configuration not stated) here?
Its AC50 is 12.6 µM [rising, partial curve, poor fit].

What does the source list for `Cc1ccc(-c2cc(C(=O)N/N=C/c3c(C)nn(-c4ccccc4)c3C)[nH]n2)cc1`?
AC50 [1]: 3.66 µM [rising, full curve]; AC50 [2]: 4.11 µM [falling, full curve]

Which AC50 [1] does the source give for `Cc1ccccc1NC(=O)CN1C(=O)N/C(=C\c2ccccc2OCc2ccc(C(=O)O)cc2)C1=O` here?
Its AC50 is 1.12 µM [rising, partial curve, poor fit].

Which AC50 [1] does the source give for `COc1cccc(N2CCN(C(=O)c3ccc(CS(=O)c4ccc(C)cc4)o3)CC2)c1` (configuration not stated) here?
The AC50 was 7.94 µM [rising, partial curve].

And the AC50 [2]?
The AC50 was 14.1 µM [falling, partial curve].

With `COc1ccc(-c2c(C)nn3c(N)c(-c4ccccc4)cnc23)cc1OC` as the compound, how does the AC50 [1] read?
The AC50 was 12.6 µM [falling, single point].

And the AC50 [2]?
The AC50 was 10 µM [falling, partial curve, poor fit].

For `NS(=O)(=O)c1ccc(NC(=S)N2CCN(c3ccc(Cl)c(Cl)c3)CC2)cc1`, which AC50 [1] is on record?
The AC50 was 29.1 µM [rising, single point].

For `Cc1ccc(C(=O)Nc2sc3c(c2C(=O)O)CCC(C)C3)o1` (configuration not stated), which AC50 [1] is on record?
The AC50 was 1.46 µM [falling, full curve].

With `CC(=O)c1csc(-c2cccc(-c3nc4ccc(Cl)cn4c3NC3CCCCC3)c2)c1` as the compound, how does the AC50 [1] read?
Its AC50 is 1.46 µM [rising, partial curve, poor fit].

For `Cc1ccc(C(=O)N2CCN(S(C)(=O)=O)C2)cc1`, which AC50 [1] is on record?
Its AC50 is 3.55 µM [rising, single point].

For `O=C1CCCC2=C1C1c3ccccc3C(=O)N1c1ccc(C(=O)c3ccccc3)cc1N2` (configuration not stated), which AC50 [1] is on record?
Its AC50 is 29.1 µM [falling, single point].

And the AC50 [2]?
The AC50 was 6.51 µM [rising, partial curve, poor fit].

For `Cc1ccc(SC(=O)c2c([N+](=O)[O-])c(C)nn2C)cc1`, which AC50 [1] is on record?
Its AC50 is 6.31 µM [falling, single point].

For `Oc1cccc(Nc2ncnc3ccccc23)c1`, which AC50 [1] is on record?
Its AC50 is 5.17 µM [falling, partial curve, poor fit].

Which AC50 [1] does the source give for `Cn1c(=O)[nH]c(=O)c2c1nc(N1CCCCC1)n2C/C=N/NC(=O)c1cc(Br)ccc1O` here?
The AC50 was 1.41 µM [falling, full curve].

Which AC50 [1] does the source give for `O=C(O)CCC(=O)Nc1ccc(S(=O)(=O)N2CCCC2)cc1` here?
Its AC50 is 29.1 µM [rising, single point].

With `CSc1ccccc1NC(=O)COc1nsnc1N1CCOCC1` as the compound, how does the AC50 [1] read?
The AC50 was 10 µM [falling, partial curve].

Which AC50 [1] does the source give for `Cc1ccc(O)c(-c2cc(C(F)(F)C(F)F)[nH]n2)c1` here?
Its AC50 is 4.47 µM [rising, partial curve, poor fit].

For `Cn1c(-c2ccc(F)cc2)cnc1NCc1cc2c(cc1[N+](=O)[O-])OCO2`, which AC50 [1] is on record?
The AC50 was 13 µM [falling, partial curve].

Which AC50 [1] does the source give for `CCN(CC)P(=O)(Nc1ccc([N+](=O)[O-])cc1)c1c(C)nn(CCC#N)c1NC(=O)c1ccc(Cl)cc1` (configuration not stated) here?
Its AC50 is 5.01 µM [rising, single point].

Which AC50 [1] does the source give for `S=C(Nc1ccccn1)NC1CCCCC1` here?
The AC50 was 35.5 µM [rising, single point].

Source: PubChem BioAssay AID493014 (National Center for Advancing Translational Sciences (NCATS), 2011)
